Test results taken from PubChem BioAssay AID624291 (National Center for Advancing Translational Sciences (NCATS), 2012).
Screen size: about 350,000 compounds; about 220 (0.063%) were called active. The inconclusive results got no clear call from the source; some entries with a clear call stand among them for comparison. Calls come from the whole dose curve; as a rule, active = well fitted activation curve with a large enough effect; inconclusive = small, poorly fitted or top-dose-only effect; inactive = no such curve, though single readings can be large or run the other way. Potencies beside an inconclusive call are fits to weak or partial responses and may not hold up.

Assay: qHTS for Activators of Integrin-Mediated Alleviation for Muscular Dystrophy; note: nearly all actives have a fitted effect of over 60% in size;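 for activation: 100% = response of the positive control SU9516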
Settings: alpha7betagal myoblasts, beta-gal FDG fluorescence, 48 h; activation: at 38.3 µM (top of the series)
Method in brief: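 Alpha7betagal+/- myoblasts (passage 13) were plated 16-24 hr, then exposed to compounds (1:260 dilution of DMSO stock) for 48 hours at 37C. After MPER lysis, β-galactosidase reporter activity was read as FDG fluorescence (ex 480/em 540) after 30 minutes.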
Potency is the fitted concentration of half-maximal effect.

SMILES | Potency | activation
CC1(C)CC(=O)/C(=N/Nc2ccc(Cl)cc2)CO1 | inconclusive: 5.01 µM [activator, single point] | 
CC(C)CCNC(=O)CN(C(=O)CCC(=O)Nc1nccs1)c1ccc2c(c1)OCCO2 | inconclusive: 28.2 µM [activator, single point] | 
CCOc1ccc(CN(C(=O)c2ccccn2)c2ccc(OC)c(Cl)c2)cc1 | inconclusive: 2.82 µM [activator, single point] | 
Cc1cc(C)nc(SCC(=O)OCC(=O)Nc2nc3ccccc3s2)n1 | inconclusive: 28.2 µM [activator, single point] | 
CCc1ccc(NC(=O)COC(=O)CCCC2=NS(=O)(=O)c3ccccc3N2)cc1 | inconclusive: 2.51 µM [activator, single point] | 
COc1ccc(NC(=O)CSc2nc(N)c(NC(=O)c3ccccc3F)c(=O)[nH]2)cc1 | inconclusive: 28.2 µM [activator, single point] | 
CC1CCN(CC(=O)Nc2cc(C(F)(F)F)ccc2Cl)CC1 |  | inactive: 22.5%
COc1ccccc1N1C(=O)c2ccccc2NC1c1ccc(O)cc1 (centres undefined) | inconclusive: 2.82 µM [activator, single point] | 
CCc1n[n+](CC(=O)c2ccccc2)c(N)s1 |  | inactive: -14.5%
COc1ccc(CCNc2ncccc2C#N)cc1OC | inconclusive: 5.01 µM [activator, single point] | 
COC(=O)c1cc(NS(=O)(=O)c2ccc3c(c2)c(=O)n(C)c(=O)n3C)cc(C(=O)OC)c1 | inconclusive: 3.16 µM [activator, full curve, poor fit] | 
c1ccc(-n2ncc3c(NCc4ccccn4)ncnc32)cc1 |  | inactive: 1.61%
CCOc1ccc(NC(=S)N2CCC(C(O)(c3ccccc3)c3ccccc3)CC2)cc1 |  | inactive: -4.75%
COc1ccc(NC(C)C(=O)Nc2ccc(C#N)cc2)cc1Cl (centres undefined) |  | inactive: -5.6%
COc1ccc(CCNC(=O)c2nn(C)cc2Cl)cc1 | inconclusive: 28.2 µM [activator, single point] | 
CC(CN1CCOCC1)OC(=O)c1ccc(Cl)cc1Cl (centres undefined) | inconclusive: 28.2 µM [activator, single point] | 
CCC(C)NCCOc1ccc(C(C)(C)c2ccccc2)cc1 (centres undefined) |  | inactive: -75.1%
O=C(COc1ccc2ccccc2c1Br)Nc1ncn[nH]1 | inconclusive: 0.891 µM [activator, partial curve, poor fit] | 
COc1ccc(S(=O)(=O)c2nnn(-c3cccc(OC)c3)c2N)cc1 | inconclusive: 10 µM [activator, partial curve, poor fit] | 
O=C(COC(=O)c1ccc[nH]c1=O)Nc1ccc(N2CCCCC2)cc1 |  | inactive: -27.3%
O=S(=O)(NC1CCCCC1)c1cccc2nsnc12 | inconclusive: 11.2 µM [activator, partial curve, poor fit] | 
CCc1nc(SCC(=O)NCC2CCCO2)c2c(=O)n(C)c(=O)n(C)c2n1 (centres undefined) | inconclusive: 3.55 µM [activator, single point] | 
COCCNC(=S)N1CCC(c2nc(-c3ccc(F)cc3)no2)CC1 | inconclusive: 1.58 µM [activator, partial curve, poor fit] | 

SMILES | Potency | activation
O=C(N/N=C/c1c[nH]c2ccccc12)c1cccs1 | inconclusive: 5.01 µM [activator, single point] | 
NC(=O)c1ccc(OCC2CCCO2)cc1 (centres undefined) |  | inactive: -24.9%
Cc1ccc(/C=C(\NC(=O)c2ccc(C)cc2)c2nc(=S)[nH][nH]2)cc1 | inconclusive: 31.6 µM [activator, single point] | 
Cc1ccc(/C=N/n2c(C3CCCCC3)n[nH]c2=S)s1 |  | inactive: 3.53%
CC(C)c1cc(C(F)(F)F)n2nc(C(=O)Nc3ccc4c(c3)OCO4)cc2n1 | inconclusive: 5.01 µM [activator, single point] | 
COc1ccc(C(=O)NCC(=O)OCC(=O)NCc2ccc3c(c2)OCO3)cc1 | inconclusive: 11.2 µM [activator, single point] | 
O=S(=O)(c1cccs1)N1CCCc2cccc(O)c21 |  | inactive: -11.3%
CC1=CC(=C2C(=O)c3ccccc3C2=O)C=C(C)O1 | inconclusive: 10 µM [activator, partial curve, poor fit] | 
Cc1c(NC(=O)Nc2ccc(F)cc2F)c(=O)n(-c2ccccc2)n1C | inconclusive: 5.01 µM [activator, single point] | 
CC(Sc1ncnc2c1cnn2-c1ccccc1)C(=O)Nc1ccc(N2CCOCC2)cc1 (centres undefined) | inconclusive: 14.1 µM [activator, partial curve, poor fit] | 
CCOn1c(=O)c(-c2ccccc2)[n+]([O-])c2ccccc21 | inconclusive: 8.91 µM [activator, partial curve] | 
CC(O)Cn1nc([N+](=O)[O-])nc1N (centres undefined) | inconclusive: 3.55 µM [activator, single point] | 
Cc1ccc(C(C)C)c(OCCCN2CCc3ccccc3C2)c1 | inconclusive: 5.01 µM [activator, single point] | 
COc1cc(C2=NOC(C(=O)Nc3c(C)n(C)n(-c4ccccc4)c3=O)C2)cc(OC)c1OC (centres undefined) | inconclusive: 0.501 µM [activator, full curve, poor fit] | 
COc1ccc(-c2cc(C(=O)Nc3c(C)n(C)n(-c4ccccc4)c3=O)c3ccccc3n2)cc1 | inconclusive: 3.16 µM [activator, single point] | 
COc1ccc(C(=O)Nn2c(SCc3ccc([N+](=O)[O-])cc3)nc3ccccc3c2=O)cc1 | inconclusive: 28.2 µM [activator, single point] | 
O=C(CN1CCN(c2ccccc2F)CC1)Nc1ccccc1F |  | inactive: -5.68%
Cc1cc(N)ncc1[N+](=O)[O-] |  | inactive: 23.2%
Nc1cc(=O)[nH]c(SCC(=O)N2CCC(Cc3ccccc3)CC2)n1 | inconclusive: 11.2 µM [activator, partial curve, poor fit] | 
O=C1NC[C@H](c2ccccc2)OC(=O)[C@@H](Cc2ccc(F)cc2)CC/C=C/C[C@@H]1CC(=O)N(CCO)Cc1ccccc1 |  | inactive: -29.6%
Cc1ccc(-n2nc3c(c2NC(=O)c2cccs2)CS(=O)(=O)C3)c(C)c1 | inconclusive: 14.1 µM [activator, single point] | 
Cc1ccnc(SCc2cc(=O)c(OC(=O)c3cc([N+](=O)[O-])ccc3Cl)co2)n1 |  | inactive: -4.44%
O=C(N/N=C/c1cccnc1)C(=O)N1CCCCCC1 | inconclusive: 11.2 µM [activator, partial curve, poor fit] | 

5 records drawn at random from the list so far:
SMILES | Potency | activation
Cc1ccc(C(C)C)c(OCCCN2CCc3ccccc3C2)c1 | inconclusive: 5.01 µM [activator, single point] | 
COc1ccc(-c2cc(C(=O)Nc3c(C)n(C)n(-c4ccccc4)c3=O)c3ccccc3n2)cc1 | inconclusive: 3.16 µM [activator, single point] | 
O=C(CN1CCN(c2ccccc2F)CC1)Nc1ccccc1F |  | inactive: -5.68%
Cc1c(NC(=O)Nc2ccc(F)cc2F)c(=O)n(-c2ccccc2)n1C | inconclusive: 5.01 µM [activator, single point] | 
O=S(=O)(c1cccs1)N1CCCc2cccc(O)c21 |  | inactive: -11.3%

The results go on.

SMILES | Potency | activation
COc1ccc(Nc2ccncc2[N+](=O)[O-])cc1 | inconclusive: 11.2 µM [activator, partial curve, poor fit] | 
C/C(=N\Nc1ncc(Cl)cc1Cl)c1ccc(OC(F)F)cc1 |  | inactive: 10.9%
COCc1cc(C)nc(Nc2ccccc2OC)c1C#N | inconclusive: 12.6 µM [activator, single point] | 
CCOc1ccc(C(=O)C(C)=O)c(OCC)c1 |  | inactive: 1.92%
CC1CCCCC1NC(=O)COc1ccccc1C#N (centres undefined) | inconclusive: 3.16 µM [activator, partial curve, poor fit] | 
COc1ccc(OC)c(N(C(=O)c2ccco2)C(C(=O)NC2CCCC2)c2ccc(N3CCOCC3)cc2)c1 (centres undefined) |  | inactive: 0%
COc1ccc(-c2noc(CCCCC(=O)N3CCN(c4cc(C)ccc4C)CC3)n2)cc1 |  | inactive: -8.39%
COc1cc(C(=O)N/N=C/c2coc3ccc(Cl)cc3c2=O)ccc1O | inconclusive: 28.2 µM [activator, single point] | 
COc1ccc(C(=O)Nc2ccc(S(=O)(=O)N3CCCC3)cc2)cc1 | inconclusive: 3.16 µM [activator, single point] | 
COc1ccc([N+](=O)[O-])cc1NC(=O)C(C)OC(=O)CN1C(=O)C2CC=CCC2C1=O (centres undefined) | inconclusive: 4.47 µM [activator, full curve, poor fit] | 
O=C(COC(=O)c1cccc(Br)c1)NCCc1ccc(F)cc1 | inconclusive: 28.2 µM [activator, single point] | 
COC(=O)CCC(=O)OC |  | inactive: 25.1%
Cc1ccc(NC(=O)CN2CCCC2c2cccn2C)cc1C (centres undefined) | inconclusive: 5.01 µM [activator, single point] | 
O=C(CSc1nnc(CNc2cccc(C(F)(F)F)c2)n1Cc1ccco1)NCc1ccco1 |  | inactive: 4.89%
O=C(NCc1ccc2c(c1)OCO2)C(=O)NCC1OCCCN1S(=O)(=O)c1ccc(F)cc1 (centres undefined) | inconclusive: 3.55 µM [activator, single point] | 
CC(C)(C)C(=O)Nc1ccc(S(=O)(=O)Nc2nccs2)cc1 | inconclusive: 2.82 µM [activator, partial curve, poor fit] | 
CCOC(=O)c1cnn2c1[nH]c(=O)c1ccccc12 |  | inactive: 5.36%
CCN(Cc1nc2ccccc2c(=O)[nH]1)C(=O)c1cc2c(s1)CCCCC2 |  | inactive: -32.4%
O=C1CCCC2=C1C(c1cccs1)CC(=O)N2c1ccc(F)cc1 (centres undefined) | inconclusive: 3.55 µM [activator, partial curve, poor fit] | 
O=C(NCC1CCCO1)c1cccc(C(=O)NCC2CCCO2)c1 (centres undefined) | inconclusive: 5.01 µM [activator, single point] | 
Cc1ccc(CCNC(=O)C2CCCN(S(C)(=O)=O)C2)cc1 (centres undefined) | inconclusive: 12.6 µM [activator, partial curve, poor fit] | 
CC(C)(C)NC(=O)CSc1nnc(NC(=O)CCc2ccccc2)s1 | inconclusive: 3.16 µM [activator, partial curve, poor fit] | 
NC(=O)C1CCN(CC(=O)Nc2ccccc2Sc2ccc(Cl)cc2)CC1 | inconclusive: 12.6 µM [activator, single point] | 
